Results are given in words; binding and its absence hold for the method and conditions named. In cells and extracts the contact can be indirect. Some results given as binding are weak or reduced against the parent protein; the word gives no strength. Tags and fused reporters may be left off the sequences shown. Values belong to the binder of their own block, whether it stands above or below them.
How the values were obtained:
HA-Bicc1 [1] = target: T1, HA-Bicc1 (UniProt Q99MQ1); test: co-IP; as a6 but with v5-ANKS6 (8 μg) co-expressed: anti-HA beads, cytoplasmic extracts of HEK293T cells with HA-Bicc1, ANKS3-Flag and v5-ANKS6; western blot of the IP fraction
T1 sequence: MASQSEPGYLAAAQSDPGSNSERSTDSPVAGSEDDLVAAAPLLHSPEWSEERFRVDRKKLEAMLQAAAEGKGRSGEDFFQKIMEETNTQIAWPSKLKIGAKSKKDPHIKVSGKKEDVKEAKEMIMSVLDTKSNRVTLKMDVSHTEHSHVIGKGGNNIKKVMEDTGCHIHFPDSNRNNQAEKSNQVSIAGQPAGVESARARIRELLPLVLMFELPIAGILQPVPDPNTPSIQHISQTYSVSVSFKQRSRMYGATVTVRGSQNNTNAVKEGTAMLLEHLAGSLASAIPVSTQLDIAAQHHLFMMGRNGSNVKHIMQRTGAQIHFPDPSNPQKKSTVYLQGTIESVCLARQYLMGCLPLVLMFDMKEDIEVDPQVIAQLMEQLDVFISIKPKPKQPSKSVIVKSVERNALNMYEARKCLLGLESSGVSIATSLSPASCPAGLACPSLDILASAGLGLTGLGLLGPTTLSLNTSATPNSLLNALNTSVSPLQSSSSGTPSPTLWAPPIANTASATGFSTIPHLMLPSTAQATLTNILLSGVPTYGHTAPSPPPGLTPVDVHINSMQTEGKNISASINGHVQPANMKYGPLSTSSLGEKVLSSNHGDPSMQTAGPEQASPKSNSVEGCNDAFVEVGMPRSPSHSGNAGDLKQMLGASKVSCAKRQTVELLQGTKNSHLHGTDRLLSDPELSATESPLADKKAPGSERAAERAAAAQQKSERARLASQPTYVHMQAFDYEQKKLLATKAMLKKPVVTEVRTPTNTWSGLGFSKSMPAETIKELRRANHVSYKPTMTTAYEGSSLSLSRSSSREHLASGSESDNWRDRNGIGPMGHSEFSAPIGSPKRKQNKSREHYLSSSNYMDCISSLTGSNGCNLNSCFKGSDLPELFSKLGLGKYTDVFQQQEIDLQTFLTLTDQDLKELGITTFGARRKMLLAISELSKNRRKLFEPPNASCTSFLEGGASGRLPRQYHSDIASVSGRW

HA-Bicc1 [2] = target: T1, HA-Bicc1; test: co-IP; anti-HA beads, cytoplasmic extracts of HEK293T cells co-transfected with HA-Bicc1, dsVenus-Dand5 3′ UTR reporter and full-length or truncated ANKS3-Flag, without v5-ANKS6; 2 h at 4°C; wash with 200 mM NaCl, 0.1% NP-40; western blot of the IP fraction
[3] = target: T2, GST-Bicc1 (full-length, WT) (UniProt Q99MQ1); test: pull-down; full-length GST-Bicc1 (WT or mutD) on glutathione-Sepharose 4B beads, no RNA; HEK293T cell extracts with full-length or truncated ANKS3-Flag; 2 h at 4°C; western blot; only the target purified
T2 sequence: T1 sequence

ANKS3 ΔNter-Flag = target: T3, ANKS3 ΔNter-Flag (UniProt Q6ZW76); test: pull-down; v5-ANKS6 and ANKS3-Flag (full-length or ΔNter) co-transfected in HEK293T, both in the extract; read by what is retained on GST-KH beads; 2 h at 4°C; western blot
T3 sequence: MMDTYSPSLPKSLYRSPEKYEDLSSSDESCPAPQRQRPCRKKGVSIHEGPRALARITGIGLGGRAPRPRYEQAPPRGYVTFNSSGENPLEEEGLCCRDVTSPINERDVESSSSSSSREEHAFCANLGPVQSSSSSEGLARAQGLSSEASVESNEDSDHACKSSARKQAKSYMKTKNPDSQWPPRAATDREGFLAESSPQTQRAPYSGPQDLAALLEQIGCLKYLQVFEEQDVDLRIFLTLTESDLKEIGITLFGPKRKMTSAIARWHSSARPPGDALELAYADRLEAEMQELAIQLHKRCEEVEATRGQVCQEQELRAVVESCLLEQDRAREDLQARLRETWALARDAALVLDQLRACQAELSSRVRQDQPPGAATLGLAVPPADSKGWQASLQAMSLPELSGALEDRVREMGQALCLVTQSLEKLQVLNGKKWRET

- binding (HA-Bicc1 [1]): binds
- binding (HA-Bicc1 [2]): binds
- binding [3]: binds
B1: ANKS3-Flag (full-length) (protein, UniProt Q6ZW76 1-656)
chain: MSELSDEASEPELLNRSLSMWHGLGTQVSGEELDVPLDLHTAASIGQYEVVKECVQRRELDLNKKNGGGWTPLMYASYIGHDTIVHLLLEAGVSVNVPTPEGQTPLMLASSCGNESIAYFLLQQGAELEMKDIQGWTALFHCTSAGHQHMVRFLLDSGANANVREPICGFTPLMEAAAAGHEIIVQYFLNHGVKVDARDHSGATARMLAKQYGHMKIVALMDTYSPSLPKSLYRSPEKYEDLSSSDESCPAPQRQRPCRKKGVSIHEGPRALARITGIGLGGRAPRPRYEQAPPRGYVTFNSSGENPLEEEGLCCRDVTSPINERDVESSSSSSSREEHAFCANLGPVQSSSSSEGLARAQGLSSEASVESNEDSDHACKSSARKQAKSYMKTKNPDSQWPPRAATDREGFLAESSPQTQRAPYSGPQDLAALLEQIGCLKYLQVFEEQDVDLRIFLTLTESDLKEIGITLFGPKRKMTSAIARWHSSARPPGDALELAYADRLEAEMQELAIQLHKRCEEVEATRGQVCQEQELRAVVESCLLEQDRAREDLQARLRETWALARDAALVLDQLRACQAELSSRVRQDQPPGAATLGLAVPPADSKGWQASLQAMSLPELSGALEDRVREMGQALCLVTQSLEKLQVLNGKKWRET

- binding (HA-Bicc1 [2]): binds
- binding [3]: binds
B2: ANKS3 ΔNter-Flag (domain or fragment, UniProt Q6ZW76)
chain: T3 sequence

- binding (ANKS3 ΔNter-Flag): binds
B3: v5-ANKS6 (protein, UniProt Q68DC2 1-871)
chain: MGEGGLPPAFQLLLRACDQGDTETARRLLEPGAAEPAERGAEPEAGAEPAGAEVAGPGAAAAGAVGAPVPVDCSDEAGNTALQFAAAGGHEPLVRFLLRRGASVNSRNHYGWSALMQAARFGHVSVAHLLLDHGADVNAQNRLGASVLTVASRGGHLGVVKLLLEAGAFVDHHHPSGEQLGLGGSRDEPLDITALMAAIQHGHEAVVRLLMEWGADPNHAARTVGWSPLMLAALTGRLGVAQQLVEKGANPDHLSVLEKTAFEVALDCKHRDLVDYLDPLTTVRPKTDEEKRRPDIFHALKMGNFQLVKEIADEDPSHVNLVNGDGATPLMLAAVTGQLALVQLLVERHADVDKQDSVHGWTALMQATYHGNKEIVKYLLNQGADVTLRAKNGYTAFDLVMLLNDPDTELVRLLASVCMQVNKDKGRPSHQPPLPHSKVRQPWSIPVLPDDKGGLKSWWNRMSNRFRKLKLMQTLPRGLSSNQPLPFSDEPEPALDSTMRAAPQDKTSRSALPDAAPVTKDNGPGSTRGEKEDTLLTTMLRNGAPLTRLPSDKLKAVIPPFLPPSSFELWSSDRSRTRHNGKADPMKTALPQRASRGHPVGGGGTDTTPVRPVKFPSLPRSPASSANSGNFNHSPHSSGGSSGVGVSRHGGELLNRSGGSIDNVLSQIAAQRKKAAGLLEQKPSHRSSPVGPAPGSSPSELPASPAGGSAPVGKKLETSKRPPSGTSTTSKSTSPTLTPSPSPKGHTAESSVSSSSSHRQSKSSGGSSSGTITDEDELTGILKKLSLEKYQPIFEEQEVDMEAFLTLTDGDLKELGIKTDGSRQQILAAISELNAGKGRERQILQETIHNFHSSFESSASNTRAPGNSPCA

From PMC10513324
